The target of experiment [1] is Myc-tagged TRIP12 (human) (UniProt Q14669). Briefly: co-IP; IP of Myc-TRIP12 with anti-Myc dynabeads from HEK293T cell lysates, Western blot.
For experiment [2], the target named is GFP-tagged wildtype TRIP12 (human) (UniProt Q14669). Kind of experiment: co-IP; GFP-TRIP12 wildtype and deletion mutants expressed in TRIP12-/- HEK293T cells; IP and Western blot for endogenous SMAD4.

The chains behind the UniProt entries cited, without tags or fusion partners. Where a name states a change or a piece, a line headed by the entry shows the natural chain unless it says otherwise.
UniProt Q14669: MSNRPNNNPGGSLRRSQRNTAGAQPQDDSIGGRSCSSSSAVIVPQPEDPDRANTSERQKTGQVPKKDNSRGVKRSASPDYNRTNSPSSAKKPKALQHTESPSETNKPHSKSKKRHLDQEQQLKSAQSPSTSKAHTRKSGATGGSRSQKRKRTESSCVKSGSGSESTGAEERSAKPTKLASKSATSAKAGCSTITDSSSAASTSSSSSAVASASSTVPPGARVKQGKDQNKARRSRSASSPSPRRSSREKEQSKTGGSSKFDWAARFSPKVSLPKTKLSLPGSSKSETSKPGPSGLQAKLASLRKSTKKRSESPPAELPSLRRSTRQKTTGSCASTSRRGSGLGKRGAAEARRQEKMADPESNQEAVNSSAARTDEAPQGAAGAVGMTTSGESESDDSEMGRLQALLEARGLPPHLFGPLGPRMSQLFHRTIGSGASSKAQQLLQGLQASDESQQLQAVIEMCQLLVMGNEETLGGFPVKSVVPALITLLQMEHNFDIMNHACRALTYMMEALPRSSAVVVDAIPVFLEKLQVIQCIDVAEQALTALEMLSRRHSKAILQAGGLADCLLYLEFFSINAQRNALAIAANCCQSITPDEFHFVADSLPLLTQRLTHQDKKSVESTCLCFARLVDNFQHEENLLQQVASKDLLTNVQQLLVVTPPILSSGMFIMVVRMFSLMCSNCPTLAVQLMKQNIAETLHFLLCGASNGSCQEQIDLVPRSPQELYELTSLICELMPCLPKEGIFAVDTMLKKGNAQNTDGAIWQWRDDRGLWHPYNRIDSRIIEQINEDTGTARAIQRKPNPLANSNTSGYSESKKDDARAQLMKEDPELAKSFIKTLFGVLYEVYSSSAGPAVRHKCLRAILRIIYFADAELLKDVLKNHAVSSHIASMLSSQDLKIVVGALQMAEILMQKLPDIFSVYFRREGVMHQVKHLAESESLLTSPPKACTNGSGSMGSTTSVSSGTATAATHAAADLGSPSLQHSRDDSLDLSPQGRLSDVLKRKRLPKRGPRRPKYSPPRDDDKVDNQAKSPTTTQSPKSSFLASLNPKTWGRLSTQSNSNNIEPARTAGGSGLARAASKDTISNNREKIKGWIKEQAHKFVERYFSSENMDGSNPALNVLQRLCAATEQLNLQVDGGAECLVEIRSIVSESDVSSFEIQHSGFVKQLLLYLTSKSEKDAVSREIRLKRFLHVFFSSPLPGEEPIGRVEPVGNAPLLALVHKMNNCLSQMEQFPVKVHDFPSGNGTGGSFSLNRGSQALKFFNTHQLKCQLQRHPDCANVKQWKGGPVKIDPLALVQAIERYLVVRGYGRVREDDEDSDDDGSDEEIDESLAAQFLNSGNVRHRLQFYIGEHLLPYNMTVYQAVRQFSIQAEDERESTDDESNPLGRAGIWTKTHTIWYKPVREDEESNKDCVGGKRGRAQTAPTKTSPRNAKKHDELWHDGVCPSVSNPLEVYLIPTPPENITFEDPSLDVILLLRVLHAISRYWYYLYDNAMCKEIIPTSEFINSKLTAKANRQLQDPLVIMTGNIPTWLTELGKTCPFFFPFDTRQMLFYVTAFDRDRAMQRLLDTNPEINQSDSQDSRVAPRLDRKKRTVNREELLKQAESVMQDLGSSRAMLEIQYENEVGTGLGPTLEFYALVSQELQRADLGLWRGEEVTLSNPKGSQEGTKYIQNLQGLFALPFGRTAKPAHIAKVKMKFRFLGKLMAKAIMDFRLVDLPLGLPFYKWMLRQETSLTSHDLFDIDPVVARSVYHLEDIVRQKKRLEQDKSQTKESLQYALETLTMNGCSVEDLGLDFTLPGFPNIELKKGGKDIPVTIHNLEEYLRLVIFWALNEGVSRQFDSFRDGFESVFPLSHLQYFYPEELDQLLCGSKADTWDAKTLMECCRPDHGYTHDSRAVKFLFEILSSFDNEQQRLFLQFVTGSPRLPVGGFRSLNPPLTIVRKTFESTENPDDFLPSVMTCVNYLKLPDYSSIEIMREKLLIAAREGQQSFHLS
UniProt Q13485: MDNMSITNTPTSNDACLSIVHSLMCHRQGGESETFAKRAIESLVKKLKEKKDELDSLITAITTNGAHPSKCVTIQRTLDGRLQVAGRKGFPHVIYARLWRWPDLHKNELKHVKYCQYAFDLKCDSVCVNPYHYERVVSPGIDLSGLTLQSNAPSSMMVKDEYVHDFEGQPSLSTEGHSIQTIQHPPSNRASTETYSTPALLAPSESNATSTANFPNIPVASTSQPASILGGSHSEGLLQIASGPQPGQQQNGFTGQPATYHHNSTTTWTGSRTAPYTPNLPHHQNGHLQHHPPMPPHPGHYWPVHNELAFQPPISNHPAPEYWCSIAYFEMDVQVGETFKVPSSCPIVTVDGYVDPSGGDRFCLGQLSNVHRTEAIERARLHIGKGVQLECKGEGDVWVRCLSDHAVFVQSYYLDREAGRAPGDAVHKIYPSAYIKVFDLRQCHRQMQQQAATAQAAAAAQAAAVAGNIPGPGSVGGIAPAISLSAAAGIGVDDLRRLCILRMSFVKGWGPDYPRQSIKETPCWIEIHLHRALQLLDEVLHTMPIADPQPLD

No constants are given. Whether binding was seen depends on the method and setting. In cells and extracts the contact can be indirect. Binding can be weak; no strength is given.

With “SMAD4, endogenous (from UniProt Q13485 1-552)”, the binding result in experiment [1] and in experiment [2] was “binds” in each case.

Values taken from publication PMC10589240.
